{"source": "PubChem BioAssay AID1259254 (NCATS, 2017)", "purpose": "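Genome-wide screen for genes that prevent DNA re-replication in cancer cells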 (primary screen)", "system": "human HCT116 colorectal cancer cells", "reagents": "single siRNA against human genes", "time to read-out": "3 days", "measurement": "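Imaged Hoechst DNA stain sorts each cell into a cycle phase by DNA amount; per plate, G2 fraction set to 0% for non-targeting and 100% for GMNN siRNA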", "scale": "G2 robust z-score: higher = more G2 cells, more excess DNA replication", "rule for the call": "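An siRNA counts as active if its G2 robust z-score lies at least 5 MADs above the screen median; here such calls match roughly 38% of GMNN control or more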", "note": "Shown is an unselected part of about 59,000 deposited reagents. About 1,550 of all reagents (2.6%) were called active. 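G2 share is only a proxy for re-replication; each gene was hit by three separate siRNAs, and active genes were retested.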 Entries without a mark were called inactive. Further read-outs or replicates are left out here. Not given: the amount of reagent."}
{"gene knocked down": "OR1D2 (GeneID 4991)", "PubChem SID": "SID160778409", "G2 robust z-score": 0.719}
{"gene knocked down": "OR1D2 (GeneID 4991)", "PubChem SID": "SID160778410", "G2 robust z-score": -0.527}
{"gene knocked down": "OR1D2 (GeneID 4991)", "PubChem SID": "SID160778411", "G2 robust z-score": 2.35}
{"gene knocked down": "MRPL12 (GeneID 6182)", "PubChem SID": "SID160716115", "G2 robust z-score": 3.6}
{"gene knocked down": "MRPL12 (GeneID 6182)", "PubChem SID": "SID160716116", "G2 robust z-score": -0.585}
{"gene knocked down": "MRPL12 (GeneID 6182)", "PubChem SID": "SID160716117", "G2 robust z-score": 0.247}
{"gene knocked down": "LRIT3 (GeneID 345193)", "PubChem SID": "SID160764842", "G2 robust z-score": 2.61}
{"gene knocked down": "LRIT3 (GeneID 345193)", "PubChem SID": "SID160764843", "G2 robust z-score": 0.705}
{"gene knocked down": "LRIT3 (GeneID 345193)", "PubChem SID": "SID160764845", "G2 robust z-score": -0.206}
{"gene knocked down": "PCYOX1 (GeneID 51449)", "PubChem SID": "SID160740829", "G2 robust z-score": 2.86}
{"gene knocked down": "PCYOX1 (GeneID 51449)", "PubChem SID": "SID160740830", "G2 robust z-score": 1}
{"gene knocked down": "PCYOX1 (GeneID 51449)", "PubChem SID": "SID160740831", "G2 robust z-score": -0.00821}
